Measured values: article PMC8954547, “Nonpeptidic Z360-Analogs Tagged with Trivalent Radiometals as Anti-CCK2R Cancer Theranostic Agents: A Preclinical Study” (Pharmaceutics, 2022)
Results are given in words; binding and its absence hold for the method and conditions named. A result given as binding can be weak or reduced; the word gives no strength.

Biological target: human CCK2i4svR splice variant of the cholecystokinin subtype 2 receptor (human)
Test: radioligand binding; competition format: 50 pM [125I][I-Tyr12,Leu15]gastrin-17 with HEK293-CCK2i4svR membrane homogenate and increasing concentrations (10^-13-10^-6 M) of nonpeptidic Z360 analogs; 50 mM HEPES pH 7.4, 1% BSA, 5.5 mM MgCl2, 35 uM bacitracin; 1 h at 22 °C; filtration through GF/B filters; only the binder purified

Binder: QGPWLEEEEEAYGWLDF (pGlu at position 1; 125I-iodo-Tyr at position 12; C-terminal amide) [[125I][I-Tyr12,Leu15]gastrin-17]
- binding: binds
